# PubChem BioAssay AID1159578 | Peter MacCallum Cancer Centre – 2015
# Screen: 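Genome-wide hunt for genes controlling movement of lymphatic endothelial cells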 (primary screen)
# Cell system: human lymphatic endothelial cells
# Reagents: siRNA pool against human genes, 40 nM
# Duration: 48 h after transfection
# Detection: 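High-content imaging of dye-stained cells in a scratch assay measures filled wound area and nuclei per well; duplicate means given as ratio to mock and robust z-score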
# Scale: migration robust z-score: higher = faster migration into the scratch; nuclei per well: higher = more cells in the well
# Hit rule: 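Migration changed when robust z exceeds 2 or falls below -2 and mean nuclei number is at least 3300; otherwise not called changed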
# Meaning of the calls: active = migration changed; inactive = no migration change, or too few cells
# Shown is a random part of about 18,000 reagents. In the full data, about 1,030 (5.7%) were called active. 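Inactive calls also include pools with fewer than 3300 nuclei, whose migration was not assessed.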 Raw values are not corrected between plates. A number with no mark means an inactive call. Not all columns of the deposit are shown.
gene knocked down,migration robust z-score,migration class with cell-count check,"nuclei per well, duplicate mean"
RNPS1,0.39,migration z between -2 and 2; enough cells,4714
AMTN,2.35 (active),migration z above 2; enough cells,6908
RCBTB1,-0.44,migration z between -2 and 2; enough cells,7017
KATNA1,0.42,migration z between -2 and 2; enough cells,5705
SKAP1,-0.06,migration z between -2 and 2; enough cells,4746
ATF1,1.12,migration z between -2 and 2; enough cells,5968
GRM5,0.54,migration z between -2 and 2; enough cells,5747
MRM3,0.39,migration z between -2 and 2; enough cells,6112
DSN1,0.01,migration z between -2 and 2; enough cells,4544
FAM151B,0.16,migration z between -2 and 2; enough cells,5564
TASOR,0.81,migration z between -2 and 2; enough cells,6840
OLFM3,-0.47,migration z between -2 and 2; enough cells,4698
NXF1,-4.02 (active),migration z below -2; enough cells,4234
KBTBD7,-0.66,migration z between -2 and 2; enough cells,4528
FMC1,-2.4 (active),migration z below -2; enough cells,4826
NDUFB7,0.34,migration z between -2 and 2; enough cells,4784
HDLBP,-1.17,migration z between -2 and 2; enough cells,4720
GGN,0.28,migration z between -2 and 2; enough cells,4760
ZNF347,-0.32,migration z between -2 and 2; enough cells,4328
PAFAH1B2,-0.42,migration z between -2 and 2; enough cells,4886
MARS2,0.78,migration z between -2 and 2; enough cells,5544
HSPB2,0.4,migration z between -2 and 2; enough cells,4550
ZNF611,0.12,migration z between -2 and 2; enough cells,5299
PRICKLE4,0.52,migration z between -2 and 2; enough cells,5966

Next part; the last 2 above are carried over.
gene knocked down,migration robust z-score,migration class with cell-count check,"nuclei per well, duplicate mean"
ZNF611,0.12,migration z between -2 and 2; enough cells,5299
PRICKLE4,0.52,migration z between -2 and 2; enough cells,5966
XBP1,0.97,migration z between -2 and 2; enough cells,6290
KPNA5,1.49,migration z between -2 and 2; enough cells,4669
FBXO27,-1.79,migration z between -2 and 2; enough cells,5417
CACYBP,-0.17,migration z between -2 and 2; enough cells,7093
NAXD,-0.74,migration z between -2 and 2; enough cells,4863
VAV2,0.44,migration z between -2 and 2; enough cells,6270
RSPO4,-0.54,migration z between -2 and 2; enough cells,5500
PVR,0.91,migration z between -2 and 2; enough cells,6225
AKAP6,-0.05,migration z between -2 and 2; enough cells,5490
MAPK8IP3,-0.78,migration z between -2 and 2; enough cells,4820
CBFA2T3,-2,migration z between -2 and 2; enough cells,5170
ZNF547,-0.91,migration z between -2 and 2; enough cells,5038
ARPC5L,-1.03,migration z between -2 and 2; enough cells,5824
MED4,-0.9,migration z between -2 and 2; enough cells,5248
DUSP9,-0.52,migration z between -2 and 2; enough cells,5072
